The nature of assay [1]: Validation of Assay for Modulators of Lamin A Splicing (AID 1459). The conditions noted are these: Lamin A splicing dual RFP/GFP fluorescence reporter, ratio. The method in brief: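 Readout: ratio of GFP (500-530 nm) to RFP (575-640 nm) total object intensity by 488 nm laser-scanning cytometry after 48 hrs. Cells were HeLa S3 clones carrying lamin A-EGFP minigene plus DsRed2 viability reporter; vehicle 0.5% DMSO final.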

The nature of assay [2]: qHTS Assay for Lipid Storage Modulators (AID 1519). The conditions noted are these: Drosophila S3 cells, BODIPY lipid droplet/cell ratio, laser cytometry, cells loaded with oleic acid. The method in brief:
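Cells seeded at 5,000 per well were treated with compounds over a concentration series and loaded with oleic acid (400 uM, as added). Lipid droplet fluorescence (488 nm excitation, 500-530 nm channel) was read by laser-scanning cytometry and normalized to 20 uM Triacsin C.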
(In qHTS, concentration-response curves come from the screen itself.)

The nature of assay [3]: qHTS Assay for Modulators of Human Peripheral Myelin Protein 22 (PMP22) Expression/Activity (AID 1967). The following applies: Cell-based PMP22 reporter, dual-color luciferase ratio. The gist of the method:
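Mouse MSC80 Schwann line, Pmp22 promoter–CBG68 reporter, EF-alpha–CBR internal control. 24h compound exposure, 37 °C/5% CO2, DMEM + 10% FBS. Readout: corrected green/red luminescence ratio, normalized to untreated cells; concentration-response curves fitted and classified.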

Assay [4] can be described thus: qHTS Validation Assay to Find Inhibitors of Chronic Active B-Cell Receptor Signaling (AID 485345). The following applies: ABC-DLBCL cells, chronic BCR signaling reporter. The gist of the method:
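TMD8 ABC-DLBCL cells with dox-inducible green luciferase–IκBα fusion and red native luciferase; compounds 46 uM–3 nM, 4 h at 37C with doxycycline in 0.5% FBS IMDM. Green/red ratio normalized to basal and 10 uM MG-132.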

Assay [5] is described as follows: qHTS assay for small molecule antagonists of peroxisome proliferator-activated receptor delta signaling (AID 588535).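 Also: cells co-treated with a PPAR-delta agonist as stimulator during compound exposure.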 The conditions noted are these: HEK293T PPARd-UAS-bla, beta-lactamase FRET ratio, 18 h; 460 nm channel. The gist of the method: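 Compounds tested in titration on PPAR-delta-UAS-bla HEK293T cells grown in charcoal/dextran-stripped serum (2%); beta-lactamase activity read via CCF4 emission at 460 and 530 nm.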

The nature of assay [6]: qHTS assay for small molecule antagonists of peroxisome proliferator-activated receptor gamma signaling (AID 588537). The conditions noted are these: HEK293 PPARg-UAS-bla, beta-lactamase ratio, antagonist mode; measured here: W460 blue channel. The method in brief:
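HEK293 cells, PPAR-gamma-UAS-bla, 3000/well. Pre-incubation 6-6.5 h, 37 C. Compound titration with rosiglitazone 50 nM final, 16 h. CCF4 dye, 2 h RT, dual-emission fluorescence.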

A short description of assay [7]: qHTS assay for small molecule agonists of retinoid X receptor alpha signaling (AID 588544). The conditions noted are these: HEK293T RXRa-UAS-bla, beta-lactamase reporter, 18 h; 530 nm emission.
Assay [8] can be described thus: qHTS assay for small molecule antagonists of retinoid X receptor alpha signaling (AID 588546).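 Also: cells stimulated with 9-cis-retinoic acid as agonist; % is scaled to controls: 0 for no effect and ±100 for the full control effect.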 The following applies: HEK293T RXRa-UAS-bla, beta-lactamase ratio, antagonist mode; measured here: W530 green channel, cytotoxicity proxy. The gist of the method: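 Beta-lactamase reporter inhibition, read as CCF4 fluorescence ratio (ex 405, em 460/530 nm) after 2 h at RT. HEK293T UAS-bla cells, 2500/well, were stimulated with 9-cis-RA at 500 or 100 nM final alongside test compound for 18 h at 37 C.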

Assay [9] is described as follows: A High-Content qHTS Against Drug Library for the Identification of Small Molecules that Inhibit DYT1 Early Onset Primary Dystonia-Associated Cell Pathology (AID 1645839). The conditions noted are these: HEK293 Flp-In EGFP-delE TorsinA, punctate imaging, 48 h; measured here: cell count cytotoxicity. The method in brief: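 Induced EGFP-delE TorsinA cells are imaged after 48 h of compound treatment. Punctate fusion-protein distribution gives the %pathology value, while nuclei counts flag toxicity. Wild-type EGFP-hTOR1A cells define the normal pattern.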

The nature of assay [10]: qHTS drug screen for cell cycle checkpoint inhibitors in PARPi-resistant BRCA-mutant ovarian cancer cell lines. (AID 1963452). The following applies: PEO1/OlaR viability, CellTiter-Glo luminescence, 96 h. The gist of the method: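 PEO1, PEO4 and PEO1/OlaR ovarian cancer cells, 600 per well, exposed 96 h at 37C to a dilution series. Viability read by CellTiter-Glo luminescence, normalized to DMSO and empty wells; activity summarized as Z-AUC.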

Assay [11] is described as follows: qHTS assay for small molecule antagonists of glucocorticoid receptor signaling (AID 588533). The conditions noted are these: HeLa MMTV-bla, GRE beta-lactamase ratio, antagonist mode, 18 h; measured here: W530 channel AC50.
Assay [12] is described as follows: qHTS for identification of novel therapeutic agents for treatment of microphthalmiaassociated transcription factor (MiT) renal cell carcinoma (RCC) (AID 1963991). The following applies: CellTiter-Glo, 48 h; for z-score: stronger effect = lower value. The gist of the method:
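Curves over 11 concentrations were fitted to CellTiter-Glo luminescence, scaled between empty wells (0%) and DMSO (100%) viability. Cells were UOK109, UOK124 and UOK145 TFE3-fusion RCC lines at 500/well, exposed 48 hours at 37 C.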

[13] abbreviates: measured here: cell count channel max response.
[14] abbreviates: measured here: cell number channel AC50.
The mark [15] stands for this setting: measured here: lipid (BODIPY) channel AC50.
Where [16] appears, read: measured here: lipid channel max response.
[17] abbreviates: measured here: green reporter channel AC50, mouse Pmp22 promoter in mouse Schwann cells.
The mark [18] stands for this setting: measured here: red reporter channel AC50, EF-alpha promoter control reporter in MSC80 mouse Schwann cells.
[19] abbreviates: measured here: CBR control luciferase (viability counter).
The mark [20] stands for this setting: measured here: PEO1 parental viability.

The record followed here is PubChem BioAssay (NCATS).

Where “and” joins values, the source holds several entries; their conditions need not be identical. Equal entries are not always repeated. This is one part of the list. The main result of the screen is listed elsewhere. These columns were measured beside it and carry no call. For part of these data: Compounds called inactive in the main read-out are mostly missing here. For part of these data: The note in brackets gives the kind of curve behind each potency; many fits are weak.

With `CC/C(=C(\c1ccccc1)c1ccc(OCCN(C)C)cc1)c1ccccc1`, the half-maximal activity concentration (AC50) in [1] (measured here: GFP channel) was 35.5 µM [falling, single point]; in [1] (measured here: RFP channel), 25.1 µM [falling, partial curve]; in assay [2] (setting [14]), 31.6 µM [rising, partial curve, poor fit] and 28.2 µM [falling, partial curve, poor fit]; in assay [2] (setting [15]), 14.1 µM [falling, single point] and 15.8 µM [rising, single point] and 31.6 µM [falling, partial curve, poor fit]; in [3] (setting [17]), 33.8 µM [falling, full curve]; in assay [3] (setting [18]), 30.1 µM [falling, full curve, poor fit]. For the same compound, the AC50 was 16.4 µM [falling, single point] in [4] (measured here: CBG/CBR ratio read-out); 18.4 µM [falling, single point] in assay [4] (setting [19]); 70.8 µM [rising, single point] in [6]; 3.98 µM [falling, partial curve, poor fit] in assay [9]; 4.47 µM [falling, full curve] in assay [10] (setting [20]); 6.31 µM [falling, full curve, poor fit] in assay [10] (measured here: PEO4 viability). Besides, the max response in assay [2] (setting [13]) was -23.7% and 49.3% and -95.7%; in assay [2] (setting [16]), -34.5% and 31.2% and -98.5%; in assay [5], -40.1% and -39.7%; in [7], -57% and -74.4%; in assay [8], -58.9% and -59.4%.

Regarding `C[C@H]1c2cccc(O)c2C(O)=C2C(=O)[C@]3(O)C(O)=C(C(N)=O)C(=O)C(N(C)C)[C@@H]3[C@@H](O)C21` (some centres not stated), the concentration at half-maximal activity (AC50) in assay [1] (measured here: GFP channel) is 3.55 µM [falling, single point]; in [1] (measured here: RFP channel), 3.55 µM [falling, single point]; in assay [2] (setting [14]), 7.94 µM [falling, full curve, poor fit]. Besides, the max response stood at 51% in assay [2] (setting [13]) and 34.3% in assay [2] (setting [16]).

As for `O=c1cc(-c2ccc(O)cc2)oc2cc(O)cc(O)c12`, the AC50 in [1] (measured here: GFP channel) was 20 µM [falling, partial curve]; in assay [1] (measured here: RFP channel), 12.6 µM [falling, partial curve]; in [2] (setting [14]) it was 35.5 µM [rising, partial curve, poor fit]; in assay [2] (setting [15]), 20 µM [falling, single point] and 39.8 µM [rising, partial curve, poor fit]; in assay [3] (setting [17]), 3.01 µM [rising, full curve]; in [3] (setting [18]), 60.1 µM [falling, partial curve, poor fit]. Also, the half-maximal activity concentration (AC50) in [4] (setting [19]) was 16.4 µM [falling, single point]; in assay [11], 39.8 µM [falling, partial curve, poor fit]; in assay [6], 0.00398 µM [falling, full curve, poor fit]; in assay [10] (setting [20]) it was 24.5 µM [falling, single point]; in [10] (measured here: PEO4 viability), 19.5 µM [falling, single point]; in assay [12] (TFE3-RCC viability, measured here: UOK124 cell viability), 2.96 µM [falling, full curve]. Besides, the AC50 in [12] (TFE3-RCC viability, measured here: UOK145 cell viability) was 14.8 µM [falling, partial curve]. Moreover, the max response in [2] (setting [13]) was -25.6% and 78.1%; in [2] (setting [16]), -31.1% and 99.8%; in assay [5] it was -47.3% and -53.6%; in assay [7], 62.3% and 73%. The z-score in [12] (TFE3-RCC UOK109 viability, measured here: UOK109 Z-AUC) is -0.339; in assay [12] (TFE3-RCC viability, measured here: UOK124 Z-AUC), -0.371; in assay [12] (TFE3-RCC viability, measured here: UOK145 Z-AUC) it was 0.148.

The term AC50 denotes the concentration giving half of the maximal activity seen.
